In all, about 1,500 compounds were measured (“activity”: median about 2, lowest 2% from about -18 on). The list shows a part of the results. Active and inactive are the calls of the source.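 Rule for the calls: active = inhibition of at least 40% at 10 µM; inconclusive = no clear call, values can overlap the other calls; inactive = the rest.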

The chains behind the UniProt entries cited, without tags or fusion partners. Where a name states a change or a piece, a line headed by the entry shows the natural chain unless it says otherwise.
UniProt O00391: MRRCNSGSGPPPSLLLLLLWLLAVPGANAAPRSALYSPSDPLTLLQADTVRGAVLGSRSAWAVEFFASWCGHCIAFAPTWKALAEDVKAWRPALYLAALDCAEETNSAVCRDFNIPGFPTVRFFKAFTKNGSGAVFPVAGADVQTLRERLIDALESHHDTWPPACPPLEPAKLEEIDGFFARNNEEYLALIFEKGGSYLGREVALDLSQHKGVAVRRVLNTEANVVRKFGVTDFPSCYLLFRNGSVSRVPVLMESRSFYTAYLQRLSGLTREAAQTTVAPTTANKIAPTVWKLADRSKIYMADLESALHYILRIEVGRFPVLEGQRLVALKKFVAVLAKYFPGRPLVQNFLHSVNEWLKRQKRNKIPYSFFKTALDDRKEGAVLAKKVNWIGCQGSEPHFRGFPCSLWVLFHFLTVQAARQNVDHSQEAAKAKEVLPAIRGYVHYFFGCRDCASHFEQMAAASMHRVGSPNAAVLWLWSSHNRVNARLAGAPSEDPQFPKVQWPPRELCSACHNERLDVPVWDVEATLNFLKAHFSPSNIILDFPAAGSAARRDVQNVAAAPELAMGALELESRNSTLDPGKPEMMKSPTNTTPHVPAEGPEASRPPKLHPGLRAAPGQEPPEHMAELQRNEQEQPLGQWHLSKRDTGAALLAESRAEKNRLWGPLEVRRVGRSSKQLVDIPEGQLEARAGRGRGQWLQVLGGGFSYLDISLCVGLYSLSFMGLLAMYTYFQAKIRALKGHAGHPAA

In this assay the target is Sulfhydryl oxidase 1 (Homo sapiens) (UniProt O00391). The assay is described as follows: human QSOX1 sulfhydryl oxidase inhibition – biochemical, ROS-Glo luminescence, single concentration, confirmation (AID 1347421).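 Note: 0% = DMSO wells with enzyme and 100% = wells lacking QSOX1 enzyme.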 As to conditions: recombinant hQSOX1, RNase A substrate, ROS-Glo H2O2 luminescence; at 10 µM.
With `COc1cc(CN2CCCC(C(=O)c3ccc(SC)cc3)C2)ccc1O` (stereo not drawn), the activity was found to be 1.2%. The figure for `O=C(c1cccc2ccccc12)C1CCCN(C2CCC2)C1` (stereo not drawn) is inactive: -1.4%. As for `O=C(Cc1cccnc1)N1CCCC(N2CCN(Cc3ccc4c(c3)OCO4)CC2)C1` (stereo not drawn), the activity turned out to be 26.5%. The figure for `O=C(c1ccc(Cl)cc1)C1CCCN(Cc2cccnc2)C1` (stereo not drawn) is 1.9%; for `COc1cccc(C2(C#N)CCN(C)CC2)c1` it is 3.7%. The figure for `CN1CCC(N2CCCC(NC(=O)C3(c4ccccc4)CCN(C)CC3)C2)CC1` (stereo not drawn) is 2.2%. The figure for `Cc1ncc(CN2CCCC(C(=O)c3ccc(C(F)(F)F)cc3)C2)s1` (stereo not drawn) is inactive: -4.1%; for `O=C(NCCC1=CCCCC1)c1cn(CC2CCCO2)nn1` (stereo not drawn) it is inactive: -2.1%. Take `O=C1N(Cc2cccnc2)CCCC12CCN(C1CCSCC1)C2` (stereo not drawn): the activity stood at 8.7%. The figure for `CN1CCC(N2CCCC(NC(=O)C3C(C)(C)C3(C)C)C2)CC1` (stereo not drawn) is 1%; for `CN(C(=O)Cc1cccnc1)C1CCCN(CCCc2ccccc2)C1` (stereo not drawn) it is inactive: -1.6%. The figure for `COc1ccc(F)cc1C(=O)C1CCCN(Cc2cnc(SC)nc2)C1` (stereo not drawn) is inactive: -2.5%. The figure for `Cc1nn(Cc2ccccc2)cc1C(=O)O` is inactive: -14.1%; for `CN(C(=O)Cc1ccn(C)c1)C1CCCN(C2Cc3ccccc3C2)C1` (stereo not drawn) it is 2.3%. For the molecule `CC(C)(C)CN1CCN(Cc2ccc(F)cc2Cl)CC1CCO` (stereo not drawn), the activity is 2%. The figure for `O=C(c1cccnc1)C1CCCN(Cc2nc(-c3ccccn3)no2)C1` (stereo not drawn) is 3.7%.

In the case of `COC1=[C+]C=C(CCN)c2ccccc21`, the activity is inactive: -9.6%. The figure for `O=C(C(=O)N1CCOCC1)c1cn(Cc2ccccc2)c2ccccc12` is inactive: -2.7%.

These data come from PubChem BioAssay AID1347421 (Sanford-Burnham Center for Chemical Genomics, 2020).
